# About 7,500 (2.1%) of roughly 360,000 compounds were called active. Inconclusive means that the source gave no clear call. Such entries were picked first, then a sample of the others. The call rests on the fitted dose curve; in most records, active means well fitted inhibition curve with a large enough effect; inconclusive means small, poorly fitted or top-dose-only effect, or effect the other way; inactive means flat fitted curve, though single readings scatter. Potencies beside an inconclusive call are fits to weak or partial responses and may not hold up.
# Experiment: Nrf2 qHTS screen for inhibitors; further: nearly all actives have a fitted effect of over 60% in size
# Settings: A549 ARE-Fluc reporter, luciferase luminescence, 18-24 h; activity change, negative = inhibition: at 46 µM (top of the series)
# Description: NIH Molecular Libraries Probe Production Network [MLPCN]
# NIH Chemical Genomics Center [NCGC]
# Assay Provider: Shyam Biswal, Johns Hopkins University
# Nrf2 is a transcription factor that maintains cellular redox homoestasis and protects cells from xenobiotics. Nrf2 binds to the antioxidant response element (ARE) to induce gene expression of a broad spectrum of genes that encode for antioxidants. […] Finding a small molecule that act as an inhibitor of Nrf2 function would represent a novel therapeutic target that could lead to improvement in survival of patients undergoing chemo- and/or radio- therapy.
# This is the Nrf2 activity measured in the luminescent read.
# 1. Shibata, T., et al., Genetic Alteration of Keap1 Confers Constitutive Nrf2 Activation and Resistance to Chemotherapy in Gallbladder Cancer. Gastroenterology, 2008.
# 2. Sjoblom, T., et al., The consensus coding sequences of human breast and colorectal cancers. Science, 2006. 314(5797): p. 268-74.
# NCGC Assay Protocol Summary:
# A concentration-response assay was performed with A549 ARE_Fluc cells which are suspended in 5% FBS OPTI-MEM. Five uL were dispensed into 1536-well white TC-treated plate using the Kalypsys dispenser to achieve a density of 5000 cells/well in all columns except column 1. The plate is incubated at 37deg C at 5% CO2 for 2 hours before 23 nL of compounds are added with the Kalypsys pin tool equipped with a 1,536-pin array containing 10-nL slotted pins (FP1S10, 0.457-mm diameter, 50.8 mm long; V&P Scientific). The control compounds Budesonide and Staurosporine are both added at a concentration of 2mM and Budesonide is also added as a 1:10 titration, starting at 200uM, to achieve dose-response. After an 18-24 hour incubation at 37deg C at 5% CO2, 5ul of medium is added to column 1. Afterwards 1ul of 5x of CellTiter-Fluor (Promega) is added to every well. The plate is then incubated at 37deg C at 5% CO2 for 30 minutes before they are read on the ViewLux (Perkin Elmer) for a fluorescent read Ex=405(10)/Em=525(10) for a 3 second exposure, 2x binning, and high gain. Then 3 uL of 3x BugLite is dispensed into all wells and the plate is incubated at ambient room temperature for 15 minutes. Afterwards another ViewLux read is performed using the clear filter to get a luminescent read with the settings of 40 second exposure, 2x binning, and high gain. Cytotoxicity is assessed through the first fluorescent read and then biochemical activity against Nrf2 is measured in the luminescent read.
# On the % scale 0 is the no-effect control and ±100 the full control effect; potency means the concentration at half of the fitted maximal effect.
SMILES,"activity change, negative = inhibition",Potency
COc1ccc(CC(=O)N2CCN(C(=O)Cc3ccc(OC)cc3)CC2)cc1,inactive: 5.9%,–
Cc1ccc(N(Cc2cccs2)C(=O)COc2cccc(C)c2)cc1,–,"inconclusive: 29.1 µM [falling, single point]"
Cc1cccc2c1NC(=O)C21N2CCCC2C(C(=O)c2ccc3ccccc3c2)C12C(=O)Nc1ccccc12 (stereo not given),–,"inconclusive: 29.1 µM [falling, single point]"
Cc1ccc(S(=O)(=O)[N-]c2nc3ccccc3nc2-n2cc[n+](Cc3ccccc3)c2)cc1,–,"inconclusive: 3.26 µM [activator, full curve, poor fit]"
COc1ccccc1NC(=O)c1ccc(NC(=O)CSc2ncccn2)cc1,–,"inconclusive: 1.64 µM [falling, partial curve, poor fit]"
Cc1cc(NC(=O)NC(=O)c2cccc(OC(F)(F)C(F)F)c2)n[nH]1,–,"inconclusive: 4.11 µM [activator, partial curve, poor fit]"
Cc1ccc(C(=O)NCCn2ccc3ccccc32)cc1[N+](=O)[O-],–,"inconclusive: 32.6 µM [falling, single point]"
COc1ccc(-c2cc(C(F)(F)F)n3nc(C(=O)NCCN4CCOCC4)cc3n2)cc1,–,"inconclusive: 14.6 µM [falling, partial curve]"
Cc1cc(N2CCCC2)ccc1NC(=O)COc1cccc(C(F)(F)F)c1,–,active: 5.8 µM
CCc1ccc(-c2csc(NC(=O)c3cccnc3)n2)cc1,–,active: 14.6 µM
COc1ccccc1[C@H]1C(c2cccc(C)c2)=NN(c2ccccc2)[C@@H]1CO,–,"inconclusive: 29.1 µM [falling, single point]"
COC(=O)c1ccc(C(C2C(=O)CC(C)(C)CC2=O)C2C(=O)CC(C)(C)CC2=O)cc1,inactive: 1.35%,–
CCc1cc[n+](/C(C(=S)Nc2cccc(C)c2)=C(/[O-])c2ccc(C)c([N+](=O)[O-])c2)cc1,–,"inconclusive: 20.6 µM [activator, partial curve]"
CN1CCc2c(sc3nc(NN)n(Cc4ccccc4)c(=O)c23)C1,–,"inconclusive: 29.1 µM [falling, single point]"
COc1ccc(C(=O)N2CCN(Cc3ccc4c(c3)OCO4)CC2)cc1OC,–,active: 16.4 µM
C=CCN=C1NN=C(c2cc(C)n(CCOC)c2C)CS1,–,"inconclusive: 2.59 µM [activator, partial curve, poor fit]"
CCn1c(-c2ccccc2)c(C(=O)CCl)c2ccccc21,inactive: -25.3%,–
O=C(Cn1cc(C(F)(F)F)ccc1=O)NCc1ccc(F)cc1,–,"inconclusive: 13 µM [activator, partial curve]"
COc1ccccc1C(=O)OC(C)CN1CCN(C)CC1 (stereo not given),–,"inconclusive: 3.66 µM [activator, full curve, poor fit]"
Nc1ncnc2c1ncn2C1CCC(CO)C(O)C1 (stereo not given),inactive: 3.09%,–
O=C(NCCSc1c(-c2ccccc2)[nH]c2ccccc12)c1ccc(S(=O)(=O)N2CCOCC2)cc1,inactive: -29.7% [at 9.27 µM],–
COc1cc(NC(=O)CCc2nnc3ccc(N4CCCCC4)nn23)cc(OC)c1OC,–,"inconclusive: 2.31 µM [activator, partial curve, poor fit]"

SMILES,"activity change, negative = inhibition",Potency
O=C(Nc1ccncc1)C1CCN(S(=O)(=O)c2ccc(Cl)c(C(F)(F)F)c2)CC1,–,"inconclusive: 32.6 µM [falling, partial curve, poor fit]"
CCN(CC)CCN1C(=O)c2ccccc2NC1c1ccc(Br)cc1 (stereo not given),inactive: 21.1%,–
O=C(O)c1cc(-c2ccc(C(F)(F)F)cc2)nc2n[nH]c(-c3ccccc3)c12,–,"inconclusive: 14.6 µM [activator, partial curve, poor fit]"
O=S(=O)(NCc1ccncc1)c1ccccc1,–,"inconclusive: 8.2 µM [falling, partial curve]"
Cc1ccc(NS(=O)(=O)c2ccccc2[N+](=O)[O-])cc1S(=O)(=O)N1CCCCC1,–,"inconclusive: 10.3 µM [falling, partial curve]"
COc1cc(S(=O)(=O)NCc2ccncc2)c(OC)cc1Cl,–,"inconclusive: 16.4 µM [falling, partial curve]"
O=C(COC(=O)c1ccccc1NCCO)NCCC1=CCCCC1,–,"inconclusive: 29.1 µM [activator, partial curve, poor fit]"
O=C(CCN1C(=O)/C(=C\C=C\c2ccccc2)SC1=S)Nc1cccc(C(=O)O)c1,–,"inconclusive: 4.11 µM [activator, full curve]"
Cn1nc(C(=O)NC2CCCCC2)c2c1-c1ccccc1SC2,–,"inconclusive: 23.1 µM [activator, single point]"
CCN(CCn1cccn1)C(=O)CCc1nnc(-c2ccc3c(c2)OCO3)o1,–,"inconclusive: 4.61 µM [activator, full curve]"
Cc1nc2sc(C(c3cccs3)N3CCOCC3)c(O)n2n1 (stereo not given),–,"inconclusive: 32.6 µM [falling, single point]"
CCN(C(=O)CSc1cc(-c2ccccc2)c2ccc(OC)cc2n1)C1CCS(=O)(=O)C1 (stereo not given),–,active: 23.1 µM
Cc1ccc2nc(-c3ccc(NC(=O)c4cccnc4)cc3)oc2c1,–,"inconclusive: 2.59 µM [activator, partial curve]"
O=C(N/N=C\c1ccc(F)cc1)c1ccc(F)cc1,–,"inconclusive: 3.66 µM [activator, full curve]"
CCc1c(C)nc2cc(-c3ccc(OC)c(OC)c3)nn2c1N1CCCC1,inactive: -24.6%,–
COC(=O)c1ccc(SCC(=O)NC2CCCCC2)c([N+](=O)[O-])c1,–,"inconclusive: 29.1 µM [activator, single point]"
O=C(CNc1cccc(S(=O)(=O)N2CCCC2)c1)Nc1ccc(F)c(F)c1,–,active: 25.9 µM
O=C1NCCCc2c1oc1cc(Br)c(O)c(Br)c21,–,"inconclusive: 13 µM [falling, partial curve, poor fit]"
COc1ccc(Cl)cc1NC(=O)CSC1=NN2CCCC(=O)N=C2S1,–,active: 23.1 µM
O=C(Nc1cccc(C(F)(F)F)c1)Nc1ccc(N2CCCC2)c(S(=O)(=O)Nc2ccccc2Cl)c1,–,active: 3.26 µM
CC(C)C[C@H](NC(=O)N1CCn2c1nc1ccccc12)C(=O)NCc1ccc2c(c1)OCO2,–,"inconclusive: 0.731 µM [activator, partial curve, poor fit]"
COc1ccccc1NC(=O)N1CCC(c2nc3cc(C)c(C)cc3[nH]2)CC1,–,"inconclusive: 3.26 µM [activator, partial curve, poor fit]"

SMILES,"activity change, negative = inhibition",Potency
Cc1nn(-c2ccccc2)nc1CNC(=O)c1ncoc1-c1ccccc1,–,"inconclusive: 25.9 µM [falling, single point]"
O=C(COC(=O)Cn1cnc2ccccc2c1=O)Nc1ccc(Cl)cc1,inactive: 15.4%,–
CCCCn1c(SCC(=O)N2c3ccccc3Sc3ccccc32)nc2c1c(=O)n(C)c(=O)n2C,–,"inconclusive: 18.4 µM [falling, single point]"
COc1ccc(OC)c(CCNC(=O)c2c(C)oc3ncn(C)c(=O)c23)c1,–,"inconclusive: 9.2 µM [activator, partial curve, poor fit]"
Cc1cccc(C)c1NC(=O)Cn1c(=O)n(CCC(=O)NCc2ccccc2Cl)c(=O)c2sccc21,–,"inconclusive: 18.4 µM [falling, single point]"
Cc1cccc2nc3c(nc12)-c1ccccc1C3=O,–,"inconclusive: 20.6 µM [activator, single point]"
COc1ccccc1NC(=O)c1ccc([N+](=O)[O-])o1,inactive: -11.1%,–
O=C(COC(=O)c1c2c(nc3ccccc13)CCCC2)Nc1ccc2c(c1)OCO2,–,"inconclusive: 29.1 µM [falling, single point]"
CCN(CCCNC(=O)c1ccc(N2CCCC2=O)cc1)c1cccc(C)c1,–,"inconclusive: 20.6 µM [falling, partial curve, poor fit]"
CC1Sc2ccc(S(=O)(=O)N3CCC(C(N)=O)CC3)cc2NC1=O (stereo not given),–,"inconclusive: 25.9 µM [activator, single point]"
Oc1ccc(Oc2ccc3c(C(F)(F)F)cc(C(F)(F)F)nc3n2)cc1,–,"inconclusive: 20.6 µM [falling, partial curve, poor fit]"
Cc1cccc(-c2nc3c(c(SCC(N)=O)n2)CCCC3)c1,–,"inconclusive: 2.59 µM [falling, full curve]"
CCCc1[nH][nH]c(=O)c1C(c1ccccc1)C(C#N)C#N (stereo not given),inactive: -15.2%,–
COc1ccc(C(C(=O)NC2CCCCC2)N(C(=O)Cc2c[nH]c3ccccc23)c2ccc(NC(C)=O)cc2)cc1OC (stereo not given),–,"inconclusive: 0.0146 µM [falling, full curve, poor fit]"
C=CCN(c1ccccc1OC)S(=O)(=O)c1ccc(Cl)c(C(=O)Nc2ccc(N3CCOCC3)cc2)c1,–,"inconclusive: 29.1 µM [activator, single point]"
COCCNC(=S)N/N=C(\C)c1ccc(O)cc1,inactive: 8.14%,–
O=C(CN1CCc2cc3c(cc2C1)OCCCO3)Nc1ccccc1,–,"inconclusive: 16.4 µM [falling, partial curve, poor fit]"
O=C(N[C@@H](Cc1ccccc1)C(=O)CCl)OCc1ccccc1,–,"inconclusive: 6.51 µM [falling, full curve]"
CCOc1cc2sc(N3CCC(C(=O)Nc4ccc(C)cc4C)CC3)nc2cc1Br,–,"inconclusive: 2.31 µM [activator, partial curve]"
COC(=O)C1=CN(CC2CCCO2)C=C(C(=O)OC)C1c1cc(OC)c(OC)c(OC)c1 (stereo not given),inactive: 6.53%,–
C=C(C)C(=O)Nc1nnc(-c2ccccc2C)s1,–,"inconclusive: 20.6 µM [falling, partial curve, poor fit]"

# A run of entries taken from the entries so far, for reference:
SMILES,"activity change, negative = inhibition",Potency
Cc1nn(-c2ccccc2)nc1CNC(=O)c1ncoc1-c1ccccc1,–,"inconclusive: 25.9 µM [falling, single point]"
O=C(COC(=O)Cn1cnc2ccccc2c1=O)Nc1ccc(Cl)cc1,inactive: 15.4%,–
CCCCn1c(SCC(=O)N2c3ccccc3Sc3ccccc32)nc2c1c(=O)n(C)c(=O)n2C,–,"inconclusive: 18.4 µM [falling, single point]"
COc1ccc(OC)c(CCNC(=O)c2c(C)oc3ncn(C)c(=O)c23)c1,–,"inconclusive: 9.2 µM [activator, partial curve, poor fit]"
